Test results from the supplement of paper PMC8728848.
The other results are listed elsewhere or left out.

Key:
Assay in all cases: glycan array binding signal (z-score within array); higher = stronger binding
Details in all cases: glycan notation: IUPAC condensed, linker removed
Neu5Ac(a2-8)Neu5Ac = biological target: Neu5Ac(a2-8)Neu5Ac
Outline: (§1)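 The binding signal is a Z-score computed within each array and averaged over linkers. Arrays of the same protein sequence at different concentrations or buffers were also averaged together. Data originate from 3228 arrays in the Consortium for Functional Glycomics database, kept only where the protein sequence was available.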

[1] = biological target: Neu5Ac(a2-8)Neu5Ac(a2-3)Gal(b1-3)GalNAc(b1-4)[Neu5Ac(a2-3)]Gal(b1-4)Glc
Outline: as §1

[2] = biological target: Neu5Ac(a2-8)Neu5Ac(a2-3)Gal(b1-3)GalNAc(b1-4)[Neu5Ac(a2-8)Neu5Ac(a2-3)]Gal(b1-4)Glc
Outline: as §1

[3] = biological target: Neu5Ac(a2-8)Neu5Ac(a2-3)Gal(b1-4)Glc
Outline: as §1

[4] = biological target: Neu5Ac(a2-8)Neu5Ac(a2-3)Gal(b1-4)GlcNAc
Outline: as §1

[5] = biological target: Neu5Ac(a2-8)Neu5Ac(a2-3)[Gal(b1-3)GalNAc(b1-4)]Gal(b1-4)Glc
Outline: as §1

[6] = biological target: Neu5Ac(a2-8)Neu5Ac(a2-3)[GalNAc(b1-4)]Gal(b1-4)Glc
Outline: as §1

[7] = biological target: Neu5Ac(a2-8)Neu5Ac(a2-8)Neu5Ac
Outline: as §1

[8] = biological target: Neu5Ac(a2-8)Neu5Ac(a2-8)Neu5Ac(a2-3)Gal(b1-4)Glc
Outline: as §1

[9] = biological target: Neu5Ac(a2-8)Neu5Ac(a2-8)Neu5Ac(a2-3)[Gal(b1-3)GalNAc(b1-4)]Gal(b1-4)Glc
Outline: as §1

[10] = biological target: Neu5Ac(a2-8)Neu5Ac(a2-8)Neu5Ac(a2-3)[GalNAc(b1-4)]Gal(b1-4)Glc
Outline: as §1

[11] = biological target: Neu5Ac(a2-8)Neu5Ac(a2-8)Neu5Ac(a2-8)Neu5Ac(a2-3)[GalNAc(b1-4)]Gal(b1-4)Glc
Outline: as §1

[12] = biological target: Neu5Ac(a2-8)Neu5Gc(a2-3)Gal(b1-4)GlcNAc
Outline: as §1

[13] = biological target: Neu5Ac(b2-6)Gal(b1-4)GlcNAc
Outline: as §1

Neu5Ac(b2-6)GalNAc = biological target: Neu5Ac(b2-6)GalNAc
Outline: as §1

[14] = biological target: Neu5Ac9Ac(a2-3)Gal(b1-3)GlcNAc
Outline: as §1

[15] = biological target: Neu5Ac9Ac(a2-3)Gal(b1-4)GlcNAc
Outline: as §1

[16] = biological target: Neu5Ac9Ac(a2-6)Gal(b1-4)GlcNAc
Outline: as §1

[17] = biological target: Neu5Gc(a2-3)Gal(b1-3)GlcNAc
Outline: as §1

[18] = biological target: Neu5Gc(a2-3)Gal(b1-3)[Fuc(a1-4)]GlcNAc
Outline: as §1

Neu5Gc(a2-3)Gal(b1-4)Glc = biological target: Neu5Gc(a2-3)Gal(b1-4)Glc
Outline: as §1

[19] = biological target: Neu5Gc(a2-3)Gal(b1-4)GlcNAc
Outline: as §1

[20] = biological target: Neu5Gc(a2-3)Gal(b1-4)GlcNAc(b1-3)Gal(b1-4)GlcNAc(b1-2)Man(a1-3)[Neu5Gc(a2-3)Gal(b1-4)GlcNAc(b1-3)Gal(b1-4)GlcNAc(b1-2)Man(a1-6)]Man(b1-4)GlcNAc(b1-4)GlcNAc
Outline: as §1

[21] = biological target: Neu5Gc(a2-3)Gal(b1-4)[Fuc(a1-3)]GlcNAc
Outline: as §1

[22] = biological target: Neu5Gc(a2-6)Gal(b1-4)GlcNAc
Outline: as §1

Neu5Gc(a2-6)GalNAc = biological target: Neu5Gc(a2-6)GalNAc
Outline: as §1

[23] = biological target: Neu5Gc(a2-8)Neu5Ac(a2-3)Gal(b1-4)GlcNAc
Outline: as §1

[24] = biological target: Neu5Gc(a2-8)Neu5Gc(a2-3)Gal(b1-4)GlcNAc
Outline: as §1

[25] = biological target: Neu5Gc(a2-8)Neu5Gc(a2-3)Gal(b1-4)GlcNAc(b1-3)Gal(b1-4)GlcNAc
Outline: as §1

[26] = biological target: Neu5Gc(a2-8)Neu5Gc(a2-6)Gal(b1-4)GlcNAc
Outline: as §1

[27] = biological target: Neu5Gc(b2-6)Gal(b1-4)GlcNAc
Outline: as §1

B1: PX9961KLbvu-535-38-535 (Bacteroides vulgatus) (protein)
chain: DKAYTDAESYTKGLHKIYSVWALSGQDGSSSSDISGLDAGNTALLRCWWTLQEQPTDEMKNAWNDAWCTEVNYMTWTTNKVEPIEGVYQRCMYIVALVNEFLKNIPNAPESIDKESYIAQARFNRAFAYYVLMDMFALPPFITEKNYSIEPAPLSREDLFNWIEAELNEIKPNLPSPRSEYGVADQAVASALLARMYLNAEIYTGKARYTECINACNEVIKAGYQLADNYADLFKADNGENPDTKKEIIYPIIFDGDKTQSWGMAAIIIGARGAEDKDVLLAHSGVDQGWAGFRATSNLVHLFDFQNDEEPKASEIQDKRGIFYDKGRSIDITSSVSGTFETEGWSVFKFSNLNSNGQPGKNTLWVDTDFPMFRLGDIYLMYAEAVARGGEGSKASAVEYINALRKRAYGDDKHNISENWLEENNFRNLLDERGRELYWEGIRRTDLVRFDLLTSGSYTWDFKGGINTGVGVNKRYNVYPIPVTDLTVNGNLQQNEGY
glycan array binding signal (z-score) (Neu5Ac(a2-8)Neu5Ac): 0.076 | glycan array binding signal (z-score) [1]: 0.21 | glycan array binding signal (z-score) [2]: -0.209 | glycan array binding signal (z-score) [3]: -0.261 | glycan array binding signal (z-score) [4]: -0.884 | glycan array binding signal (z-score) [5]: -0.51 | glycan array binding signal (z-score) [6]: 0.145 | glycan array binding signal (z-score) [7]: -0.48 | glycan array binding signal (z-score) [8]: -0.175 | glycan array binding signal (z-score) [9]: 0.235 | glycan array binding signal (z-score) [10]: 0.12 | glycan array binding signal (z-score) [11]: -0.242 | glycan array binding signal (z-score) [12]: 19.4 | glycan array binding signal (z-score) [13]: 0.524 | glycan array binding signal (z-score) (Neu5Ac(b2-6)GalNAc): -0.986 | glycan array binding signal (z-score) [14]: -0.088 | glycan array binding signal (z-score) [15]: -1.15 | glycan array binding signal (z-score) [16]: 0.457 | glycan array binding signal (z-score) [17]: -0.403 | glycan array binding signal (z-score) [18]: -1.01 | glycan array binding signal (z-score) (Neu5Gc(a2-3)Gal(b1-4)Glc): -0.258 | glycan array binding signal (z-score) [19]: 0.722 | glycan array binding signal (z-score) [20]: 0.451 | glycan array binding signal (z-score) [21]: -0.252 | glycan array binding signal (z-score) [22]: -0.211 | glycan array binding signal (z-score) (Neu5Gc(a2-6)GalNAc): 0.161 | glycan array binding signal (z-score) [23]: -0.218 | glycan array binding signal (z-score) [24]: -0.599 | glycan array binding signal (z-score) [25]: -0.654 | glycan array binding signal (z-score) [26]: 0.005 | glycan array binding signal (z-score) [27]: -0.484
